# Source: the supplement of paper PMC11438910
# The list shows a part of the results. Most of these values are background signal.
# B1: 3S41.3 (protein)
# chain 1: EVQLVESGGGLVQPGGSLRLSCATSGFTFSNYWMYWFRQAPGKGLEWVSTISGSSSNTYYPDSVKGRFTISRDNAKNTLYLQINSLRAEDTAVYYCARRHDHSSGWAFDYWGQGVLVTVSS
# chain 2: EIVMTQSPATLSLSPGERATLSCRASQSVGSNLAWYQQKPGQAPKLLIYDASSRATGIPDRFSGSGSGTDFTLTVSSLEPEDVGVYYCQQYNNWKTFGQGTKVEIK
# Tests used:
# Assay in all cases: fluorescence intensity of antibody binding to polysaccharide-coupled beads; higher = stronger binding
# [1] = target: pneumococcal polysaccharide Pn28A
# [2] = target: pneumococcal polysaccharide Pn28F
# [3] = target: pneumococcal polysaccharide Pn29
# [4] = target: pneumococcal polysaccharide Pn3
# [5] = target: pneumococcal polysaccharide Pn31
# [6] = target: pneumococcal polysaccharide Pn32A
# [7] = target: pneumococcal polysaccharide Pn32F
# [8] = target: pneumococcal polysaccharide Pn33A
# [9] = target: pneumococcal polysaccharide Pn33B
# [10] = target: pneumococcal polysaccharide Pn33C
# [11] = target: pneumococcal polysaccharide Pn33D
# [12] = target: pneumococcal polysaccharide Pn33F
# [13] = antibody concentration 2337.65 ng/mL
# [14] = antibody concentration 12500 ng/mL
# [15] = antibody concentration 0.1 ng/mL
# [16] = antibody concentration 0.534724 ng/mL
# [17] = antibody concentration 2.8593 ng/mL
# [18] = antibody concentration 15.2894 ng/mL
# [19] = antibody concentration 81.7561 ng/mL
# [20] = antibody concentration 437.17 ng/mL
binder,measurement,setting,value
B1,fluorescence intensity,[1]; [13],42.5 MFI
same,fluorescence intensity,[1]; [14],83.5 MFI
same,fluorescence intensity,[2]; [15],28 MFI
same,fluorescence intensity,[2]; [16],27.2 MFI
same,fluorescence intensity,[2]; [17],30.2 MFI
same,fluorescence intensity,[2]; [18],27.5 MFI
same,fluorescence intensity,[2]; [19],31 MFI
same,fluorescence intensity,[2]; [20],49.8 MFI
same,fluorescence intensity,[2]; [13],249 MFI
same,fluorescence intensity,[2]; [14],667 MFI
same,fluorescence intensity,[3]; [15],15 MFI
same,fluorescence intensity,[3]; [16],16.5 MFI
same,fluorescence intensity,[3]; [17],16.5 MFI
same,fluorescence intensity,[3]; [18],15.2 MFI
same,fluorescence intensity,[3]; [19],19 MFI
same,fluorescence intensity,[3]; [20],53.5 MFI
same,fluorescence intensity,[3]; [13],426 MFI
same,fluorescence intensity,[3]; [14],1040 MFI
same,fluorescence intensity,[4]; [15],13.5 MFI
same,fluorescence intensity,[4]; [16],18.2 MFI
same,fluorescence intensity,[4]; [17],47.5 MFI
same,fluorescence intensity,[4]; [18],211 MFI
same,fluorescence intensity,[4]; [19],980 MFI
same,fluorescence intensity,[4]; [20],4260 MFI
same,fluorescence intensity,[4]; [13],18200 MFI
same,fluorescence intensity,[4]; [14],19200 MFI
same,fluorescence intensity,[5]; [15],13.5 MFI
same,fluorescence intensity,[5]; [16],13 MFI
same,fluorescence intensity,[5]; [17],14 MFI
same,fluorescence intensity,[5]; [18],15 MFI
same,fluorescence intensity,[5]; [19],16.5 MFI
same,fluorescence intensity,[5]; [20],67 MFI
same,fluorescence intensity,[5]; [13],492 MFI
same,fluorescence intensity,[5]; [14],1100 MFI
same,fluorescence intensity,[6]; [15],16.5 MFI
same,fluorescence intensity,[6]; [16],14.5 MFI
same,fluorescence intensity,[6]; [17],17.5 MFI
same,fluorescence intensity,[6]; [18],16.5 MFI
same,fluorescence intensity,[6]; [19],18 MFI
same,fluorescence intensity,[6]; [20],26.8 MFI
same,fluorescence intensity,[6]; [13],92.8 MFI
same,fluorescence intensity,[6]; [14],248 MFI
same,fluorescence intensity,[7]; [15],25 MFI
same,fluorescence intensity,[7]; [16],27 MFI
same,fluorescence intensity,[7]; [17],26.5 MFI
same,fluorescence intensity,[7]; [18],29.2 MFI
same,fluorescence intensity,[7]; [19],33 MFI
same,fluorescence intensity,[7]; [20],47 MFI
same,fluorescence intensity,[7]; [13],80.5 MFI
same,fluorescence intensity,[7]; [14],176 MFI
same,fluorescence intensity,[8]; [15],16.5 MFI
same,fluorescence intensity,[8]; [16],17.5 MFI
same,fluorescence intensity,[8]; [17],17.5 MFI
same,fluorescence intensity,[8]; [18],18 MFI
same,fluorescence intensity,[8]; [19],22 MFI
same,fluorescence intensity,[8]; [20],92 MFI
same,fluorescence intensity,[8]; [13],946 MFI
same,fluorescence intensity,[8]; [14],2380 MFI
same,fluorescence intensity,[9]; [15],17.5 MFI
same,fluorescence intensity,[9]; [16],17 MFI
same,fluorescence intensity,[9]; [17],16.5 MFI
same,fluorescence intensity,[9]; [18],18 MFI
same,fluorescence intensity,[9]; [19],17 MFI
same,fluorescence intensity,[9]; [20],19 MFI
same,fluorescence intensity,[9]; [13],24.5 MFI
same,fluorescence intensity,[9]; [14],57.5 MFI
same,fluorescence intensity,[10]; [15],19.5 MFI
same,fluorescence intensity,[10]; [16],18.2 MFI
same,fluorescence intensity,[10]; [17],18.5 MFI
same,fluorescence intensity,[10]; [18],18 MFI
same,fluorescence intensity,[10]; [19],18.5 MFI
same,fluorescence intensity,[10]; [20],24 MFI
same,fluorescence intensity,[10]; [13],84.5 MFI
same,fluorescence intensity,[10]; [14],259 MFI
same,fluorescence intensity,[11]; [15],17 MFI
same,fluorescence intensity,[11]; [16],15.5 MFI
same,fluorescence intensity,[11]; [17],15.5 MFI
same,fluorescence intensity,[11]; [18],14.5 MFI
same,fluorescence intensity,[11]; [19],14 MFI
same,fluorescence intensity,[11]; [20],17 MFI
same,fluorescence intensity,[11]; [13],33.2 MFI
same,fluorescence intensity,[11]; [14],95.2 MFI
same,fluorescence intensity,[12]; [15],11 MFI
same,fluorescence intensity,[12]; [16],13 MFI
same,fluorescence intensity,[12]; [17],13 MFI
same,fluorescence intensity,[12]; [18],12.5 MFI
same,fluorescence intensity,[12]; [19],17 MFI
same,fluorescence intensity,[12]; [20],91 MFI
same,fluorescence intensity,[12]; [13],921 MFI
same,fluorescence intensity,[12]; [14],1820 MFI

# For reference, part of the list above.
binder,measurement,setting,value
B1,fluorescence intensity,[8]; [19],22 MFI
same,fluorescence intensity,[8]; [20],92 MFI
same,fluorescence intensity,[8]; [13],946 MFI
